Data as given in PubChem BioAssay AID488837 (National Center for Advancing Translational Sciences (NCATS), 2010).
The campaign covered roughly 330,000 compounds. About 20 (0.006%) were called active. This list was built around the results that the source calls inconclusive (neither active nor inactive); the mix of calls is not that of the screen. Calls come from the whole dose curve; as a rule, active = well fitted inhibition curve with a large enough effect; inconclusive = small, poorly fitted or top-dose-only effect, or effect the other way; inactive = flat fitted curve, though single readings scatter. Where the call is inconclusive, the potency comes from a doubtful curve fit.

By UniProt entry, the sequences of proteins in these tests, tags left out. Where a name states a change or a piece, a line headed by the entry shows the natural chain unless it says otherwise.
UniProt O00167: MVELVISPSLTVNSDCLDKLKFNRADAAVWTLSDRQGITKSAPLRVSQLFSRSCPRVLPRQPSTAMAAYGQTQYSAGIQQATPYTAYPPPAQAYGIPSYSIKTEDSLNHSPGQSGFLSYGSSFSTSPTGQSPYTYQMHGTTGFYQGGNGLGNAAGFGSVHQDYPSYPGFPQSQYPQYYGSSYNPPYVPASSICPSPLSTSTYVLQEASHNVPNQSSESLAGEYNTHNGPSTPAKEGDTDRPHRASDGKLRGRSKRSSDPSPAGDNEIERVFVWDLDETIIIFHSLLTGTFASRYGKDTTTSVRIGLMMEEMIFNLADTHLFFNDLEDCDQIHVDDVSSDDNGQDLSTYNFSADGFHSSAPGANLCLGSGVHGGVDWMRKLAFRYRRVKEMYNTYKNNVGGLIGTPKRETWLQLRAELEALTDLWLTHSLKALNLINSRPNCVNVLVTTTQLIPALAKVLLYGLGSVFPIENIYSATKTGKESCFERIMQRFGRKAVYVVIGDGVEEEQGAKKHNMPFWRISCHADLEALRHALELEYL

Biological target: Protein phosphatase EYA2 (Homo sapiens) (UniProt O00167)
Experiment: qHTS Assay for Inhibitors of the Phosphatase Activity of Eya2
Conditions: recombinant Eya2, OMFP fluorescence dephosphorylation (OMFP is methylfluorescein phosphate); activity, negative = inhibition: at 76.9 µM (top of the series) unless noted
Procedure, shortened: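 Eya2 (0.2 uM) preincubated 10 min at ambient with compound, then OMFP substrate added at 50 uM; 10 min reaction in 50 mM HEPES pH 7.5, 50 mM NaCl, 5 uM MgCl2, 0.05% BSA, 1 mM DTT. Fluorescence read at Ex 485/Em 525 nm.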
% is set by controls: 0 for no effect and ±100 for the full control effect; potency is the fitted concentration of half-maximal effect.

`CCC(=Nc1ccccc1O)C1=C(O)CC(c2ccccc2)CC1=O` (stereo unspecified) was tested. Which Potency did it give?
Its Potency is inconclusive: 112 µM [inhibitor, partial curve, poor fit].

Which Potency does the source give for `O=S(=O)([O-])CCC[n+]1c(/C=C\Nc2ccccc2)oc2ccc(-c3ccccc3)cc21` here?
The Potency was inconclusive: 7.94 µM [activator, full curve].

For `Cc1ccccc1NC(=O)c1cccc(N2C(=O)C3C4CCC(C4)C3C2=O)c1` (stereo unspecified), which Potency is on record?
Its Potency is inconclusive: 63.1 µM [inhibitor, partial curve, poor fit].

For `Cc1ccc2nc(C)cc(C(=O)OCC(=O)Nc3c(C)n(C)n(-c4ccccc4)c3=O)c2c1`, which Potency is on record?
Its Potency is inconclusive: 100 µM [inhibitor, single point].

For `O=C1c2cccc3c([N+](=O)[O-])c(O)cc(c23)C(=O)N1Nc1ccccc1`, which Potency is on record?
Its Potency is “inactive”.

For `O=C(Oc1ccc(OC(=O)C2CCC2)cc1)C1CCC1`, which Potency is on record?
Its Potency is “inactive”.

With `O=C(Nc1ccc(CN2CCS(=O)(=O)CC2)cc1)c1ccc(C(F)(F)F)cc1` as the molecule, how does the Potency read?
Its Potency is inconclusive: 89.1 µM [inhibitor, single point].

How did the Potency turn out when `CN1CCN(c2ccc(Cl)cc2NC(=O)c2cc(=O)[nH]c3ccccc23)CC1` was run?
The Potency was inconclusive: 100 µM [inhibitor, single point].

With `Cn1c(=O)[nH]c(=O)c2c1nc(SCC(=O)O)n2CCOc1ccccc1` as the molecule, how does the Potency read?
The Potency was inconclusive: 28.2 µM [inhibitor, partial curve, poor fit].

How did the Potency turn out when `Cc1cc(NC(=O)c2sc(Nc3ccc(F)cc3)nc2N)no1` was run?
The Potency was inconclusive: 89.1 µM [inhibitor, single point].

Which Potency does the source give for `CCOC(=O)c1c(N)sc(N)c1C(=O)OCC` here?
Its Potency is “inactive”.

How did the Potency turn out when `O=C(COc1ccc2c(c1)oc(=O)c1ccccc12)N[C@@H](Cc1c[nH]c2ccccc12)C(=O)O` was run?
Its Potency is “inactive”.

With `CCOC(=O)c1c(NC(=O)Cn2nnc(-c3ccc(Cl)cc3)n2)sc(C)c1C` as the molecule, how does the Potency read?
The Potency was “inactive”.

For `COc1cccc(NC(=S)N2CCc3cc(OC)c(OC)cc3C2)c1`, which Potency is on record?
Its Potency is inconclusive: 178 µM [inhibitor, partial curve, poor fit].

Which Potency does the source give for `S=C1NC[C@H](CC2CCCCC2)N1CC1CCCCC1` here?
The Potency was inconclusive: 11.2 µM [inhibitor, partial curve, poor fit].

With `COc1ccc(-c2[nH]ncc2CN2CCC(O)(c3ccc(Cl)cc3)CC2)cc1` as the molecule, how does the Potency read?
The Potency was inconclusive: 89.1 µM [inhibitor, single point].

How did the Potency turn out when `CCOCCCNC(=O)C(c1ccc(C)cc1)N(Cc1cccs1)C(=O)c1ccccn1` (stereo unspecified) was run?
The Potency was inconclusive: 89.1 µM [inhibitor, single point].

How did the Potency turn out when `CCOc1cccc(NC(=O)CSc2nc(C)c3c(c2C#N)CCCC3)c1` was run?
The Potency was inconclusive: 20 µM [inhibitor, single point].

For `COc1ccc(CCn2c(O)c(C3=c4ccccc4=NC3=O)sc2=S)cc1OC`, which Potency is on record?
Its Potency is inconclusive: 17.8 µM [inhibitor, single point].

`CCCCNC(=O)N(O)C1N(/N=C/c2cccs2)C(=S)SC1(C)C` (stereo unspecified) was tested. Which Potency did it give?
The Potency was inconclusive: 56.2 µM [inhibitor, single point].

With `COC(=O)C(N)Cc1ccc(O)cc1` (stereo unspecified) as the molecule, how does the Potency read?
Its Potency is “inactive”.

How did the Potency turn out when `COc1ccc(NC(=S)N2CCN(c3ccccc3)CC2)c(OC)c1` was run?
The Potency was inconclusive: 25.1 µM [inhibitor, single point].

For `O=C(COC(=O)C12CC3CC(CC(O)(C3)C1)C2)NCCc1ccc(Cl)cc1`, which Potency is on record?
The Potency was “inactive”.

Which Potency does the source give for `CC1(C)CC(NS(=O)(=O)c2ccc(Cl)cc2)CC(C)(C)N1` here?
Its Potency is inconclusive: 17.8 µM [inhibitor, single point].

Which Potency does the source give for `CCCCN1C(=O)C(=O)N(CC(=O)Nc2ccccc2C(=O)OCC)C1=O` here?
Its Potency is “inactive”.

Which Potency does the source give for `O=C(NCCc1ccccc1)C(=O)NCC1OCCN1S(=O)(=O)c1ccc(F)cc1` (stereo unspecified) here?
Its Potency is inconclusive: 22.4 µM [inhibitor, single point].

With `COc1ccccc1C(=O)N/C(=N/c1nc(C)cc(C)n1)Nc1ccccc1` as the molecule, how does the Potency read?
Its Potency is inconclusive: 100 µM [inhibitor, single point].

`CCc1ccc(-n2c(=O)c3ccccc3n(CC(=O)C(C)(C)C)c2=O)cc1` was tested. Which Potency did it give?
The Potency was inconclusive: 25.1 µM [inhibitor, single point].

`COc1cc(/C=C2\SC(=N)N(c3ccc(F)cc3)C2=O)ccc1O` was tested. Which Potency did it give?
The Potency was inconclusive: 70.8 µM [inhibitor, partial curve].

`O=C(C[n+]1ccccc1)N/N=C/c1ccccc1F` was tested. Which Potency did it give?
Its Potency is “inactive”.

`CN1CCC(N(C)C(=O)CCc2nc3ccccc3c(=O)[nH]2)CC1` was tested. Which activity, negative = inhibition did it give?
Its activity, negative = inhibition is inconclusive: 32.9% [activator].

With `S=c1[nH]c2ccc(Cl)cc2s1` as the molecule, how does the Potency read?
The Potency was inconclusive: 200 µM [inhibitor, single point].

Which activity, negative = inhibition does the source give for `COc1ccc2cc3c(N)nn(C(=O)c4ccccc4[N+](=O)[O-])c3nc2c1` here?
The activity, negative = inhibition was inconclusive: 70.1% [activator].

Which Potency does the source give for `CCOc1ccccc1Nc1cc(C)nc2nc(C)nn12` here?
The Potency was “inactive”.

Which Potency does the source give for `CS(=O)(=O)c1ccc(N2CCN(c3ccccn3)CC2)c([N+](=O)[O-])c1` here?
The Potency was “inactive”.

How did the Potency turn out when `OCn1c2ccccc2c2ccccc21` was run?
The Potency was inconclusive: 89.1 µM [inhibitor, single point].

For `CCOC(=O)c1cn(CC(=O)Nc2ccc(OC)cc2OC)nn1`, which Potency is on record?
Its Potency is “inactive”.

How did the Potency turn out when `O=C(OCc1cc([N+](=O)[O-])cc2c1OCOC2)c1ccc2ccccc2n1` was run?
The Potency was inconclusive: 100 µM [inhibitor, single point].

Which activity, negative = inhibition does the source give for `Cc1cc2nc3c(=O)n(C4CCCCC4)c(=O)[nH]c3nc2cc1N` here?
Its activity, negative = inhibition is inconclusive: 113% [activator].

`Cc1ccc(-c2cc(C(=O)N3CCOCC3)c3ccccc3n2)o1` was tested. Which Potency did it give?
Its Potency is “inactive”.

With `CN(C)c1oc(-c2ccccc2)nc1C#N` as the molecule, how does the Potency read?
Its Potency is “inactive”.

How did the Potency turn out when `CCOc1cccc(/C=N/Nc2nc(N3CCCC3)nc(N3CCCC3)n2)c1O` was run?
Its Potency is inconclusive: 794 µM [inhibitor, single point].

`CC1(C)CC(=O)C(N=Nc2c(F)cccc2F)=C(O)C1` was tested. Which Potency did it give?
Its Potency is inconclusive: 100 µM [inhibitor, single point].

For `Cc1cc(NC(=O)CSc2nc3c(C)ccc(C)c3cc2C#N)no1`, which Potency is on record?
The Potency was “inactive”.

How did the Potency turn out when `COc1ccc(-n2c(O)c(C=Nc3ccccc3)c3ccccc3c2=O)cc1` was run?
The Potency was “inactive”.

How did the Potency turn out when `CC(=O)Nc1nc2c(s1)C(=O)NCC(C)(C)C2` was run?
The Potency was inconclusive: 100 µM [inhibitor, single point].

For `CN(C)C(=S)Nc1cccc(C(F)(F)F)c1`, which Potency is on record?
Its Potency is inconclusive: 35.5 µM [inhibitor, partial curve].

For `Cc1nn2c(C)c(C(=O)Nc3ccccc3)cnc2c1-c1ccccc1`, which Potency is on record?
Its Potency is inconclusive: 141 µM [inhibitor, single point].

Which Potency does the source give for `COc1ccc(C(=O)NCCSCc2ccccc2C)cc1` here?
The Potency was inconclusive: 17.8 µM [inhibitor, partial curve, poor fit].

For `CN(C)c1ccc(/C=C(/C(=O)c2ccc(Cl)cc2Cl)n2cncn2)cc1`, which Potency is on record?
Its Potency is “inactive”.

Which Potency does the source give for `O=C(N=C1SC2CS(=O)(=O)CC2N1c1c(Cl)cccc1Cl)C1CC1` (stereo unspecified) here?
Its Potency is inconclusive: 25.1 µM [inhibitor, single point].

How did the Potency turn out when `Cc1cc(N2CCN(c3nc(-c4ccccc4)cs3)CC2)c2ccccc2n1` was run?
Its Potency is inconclusive: 89.1 µM [inhibitor, single point].

For `CCc1ccc(Oc2coc3cc(O)ccc3c2=O)cc1`, which Potency is on record?
The Potency was inconclusive: 100 µM [inhibitor, single point].

`Cc1nc(-n2[nH]c3c(c2=O)CCCC3)[nH]c(=O)c1Cc1ccccc1` was tested. Which Potency did it give?
The Potency was inconclusive: 63.1 µM [activator, partial curve].

With `NS(=O)(=O)c1ccc(-c2ccc(/C=C3\SC(=S)N(C4CCS(=O)(=O)C4)C3=O)o2)cc1` (stereo unspecified) as the molecule, how does the Potency read?
Its Potency is “inactive”.

With `O=C(NCCC1CCCCN1S(=O)(=O)c1ccccc1)C(=O)NCc1ccccc1F` (stereo unspecified) as the molecule, how does the Potency read?
Its Potency is “inactive”.

For `CC(CCc1ccc(O)cc1)NCCc1ccc(O)c(O)c1` (stereo unspecified), which Potency is on record?
Its Potency is “inactive”.

How did the Potency turn out when `Cc1cccc(OCCOC(=O)c2c(-c3ccccc3)noc2C)c1` was run?
The Potency was inconclusive: 20 µM [inhibitor, single point].

`CCCN(CC(=O)Nc1ccccc1C)C(=O)c1ccc(-c2ccc([N+](=O)[O-])cc2)o1` was tested. Which Potency did it give?
Its Potency is inconclusive: 224 µM [inhibitor, partial curve, poor fit].

For `Cc1occc1C(=O)N/N=C/C=C\c1ccccc1[N+](=O)[O-]`, which Potency is on record?
Its Potency is inconclusive: 100 µM [inhibitor, single point].

Which Potency does the source give for `Cc1cc(C(=O)OCC(=O)NCc2ccc(Cl)cc2)c(C)o1` here?
The Potency was inconclusive: 28.2 µM [inhibitor, partial curve].

For `CCC(=O)N(C)CCc1cc2c(c(OC)c1/C=N/NC(=O)c1ccncc1)OCO2`, which Potency is on record?
The Potency was inconclusive: 112 µM [inhibitor, partial curve].

With `Cc1cccc(S(=O)(=O)c2c(N)n(/N=C/c3ccccc3)c3nc4ccccc4nc23)c1` as the molecule, how does the Potency read?
The Potency was “inactive”.

For `O=C(Nc1ccc(-c2nnn(CC(=O)N3CCN(C(=O)c4ccco4)CC3)n2)cc1)c1ccc(F)cc1`, which Potency is on record?
The Potency was inconclusive: 89.1 µM [inhibitor, single point].

Which Potency does the source give for `O=C(Nn1cnc2ccccc2c1=O)c1ccc(F)cc1Cl` here?
Its Potency is inconclusive: 79.4 µM [inhibitor, partial curve].

`CCCCCC(=O)Nc1ncc2c(n1)CC(c1cccs1)CC2=O` (stereo unspecified) was tested. Which Potency did it give?
The Potency was inconclusive: 25.1 µM [inhibitor, single point].

With `COc1ccc(Cl)cc1N1C(=O)/C(=C\c2sccc2C)N=C1SCC(=O)NC1CC1` as the molecule, how does the Potency read?
The Potency was inconclusive: 25.1 µM [inhibitor, partial curve, poor fit].

With `CCCCC(=Nc1ccc(N)cc1)C1=C(O)C(C(=O)OC)C(C)(C)CC1=O` (stereo unspecified) as the molecule, how does the Potency read?
Its Potency is “inactive”.

Which Potency does the source give for `Cc1ccc(/C=C/C(=O)NCCCc2ccccc2)cc1` here?
Its Potency is “inactive”.

For `O=C(O)c1ccc(/C=C/c2ccc3cccc(O)c3n2)cc1`, which Potency is on record?
The Potency was “inactive”.

`CCCN(CCC)CCCNC(=O)c1cc2cc3ccc(Cl)cc3nc2o1` was tested. Which Potency did it give?
Its Potency is inconclusive: 100 µM [inhibitor, partial curve].
